Measurements reported in PubChem BioAssay AID1508597 (Cure First, 2020).

Test: 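Survival screen with siRNA in ovarian cancer cells derived from patients, with or without rucaparib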 (primary screen)
Cells: human ovarian carcinoma lines grown from tumours: OCI-P5x (papillary serous) and OCI-C5x (clear cell)
Reagents: siRNA pool against human genes, 1.25 pmol siRNA per well
Duration: 72 h or 96 h, depending on the cell culture
Treatment: rucaparib 20 µM (about IC30) or vehicle, present until read-out
Measurement: 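Luminescent ATP-based viability assay read 72 or 96 h after transfection, depending on culture, given as normalised percent viability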
Direction: viability, normalised: higher = more viable cells remaining
Active means: 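a well counts as a hit if its normalised viability is under 80 percent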
Calls: active = viability under 80%; inactive = viability 80% or more
Shown is one part, drawn at random, of about 2,100 deposited reagents. 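Calls flag viability under 80% in either arm, not effects specific to rucaparib; the reference for percent is not stated.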 A number with no mark means an inactive call. Not given: the 100% reference.

UCHL5, rucaparib or vehicle Rucaparib, cell line OCI-C5x (clear cell), technical replicate 1 scored viability, normalised (%) = 76.5 (active). With UCHL5, rucaparib or vehicle Rucaparib, cell line OCI-C5x (clear cell), technical replicate 2, the entry reads viability, normalised (%) = 74.3 (active). UCHL5, rucaparib or vehicle Rucaparib, cell line OCI-C5x (clear cell), technical replicate 3 gave viability, normalised (%) = 42.1 (active). UCHL5, rucaparib or vehicle Rucaparib, cell line OCI-P5x (serous), technical replicate 1 gave viability, normalised (%) = 55.8 (active). For UCHL5, rucaparib or vehicle Rucaparib, cell line OCI-P5x (serous), technical replicate 2, the entry reads viability, normalised (%) = 78.1 (active). For UCHL5, rucaparib or vehicle Rucaparib, cell line OCI-P5x (serous), technical replicate 3 the deposit lists viability, normalised (%) = 44.2 (active).

With UCHL5, rucaparib or vehicle Vehicle, cell line OCI-C5x (clear cell), technical replicate 1, the entry reads viability, normalised (%) = 73.2 (active). UCHL5, rucaparib or vehicle Vehicle, cell line OCI-C5x (clear cell), technical replicate 2 showed viability, normalised (%) = 77.3 (active). UCHL5, rucaparib or vehicle Vehicle, cell line OCI-C5x (clear cell), technical replicate 3 showed viability, normalised (%) = 65.6 (active). UCHL5, rucaparib or vehicle Vehicle, cell line OCI-P5x (serous), technical replicate 1 gave viability, normalised (%) = 84.6. UCHL5, rucaparib or vehicle Vehicle, cell line OCI-P5x (serous), technical replicate 2 showed viability, normalised (%) = 78.5 (active). With UCHL5, rucaparib or vehicle Vehicle, cell line OCI-P5x (serous), technical replicate 3, the entry reads viability, normalised (%) = 57.8 (active).

4 entries from above, set out differently.
UCHL5, rucaparib or vehicle Rucaparib, cell line OCI-P5x (serous), technical replicate 2
- viability, normalised (%): 78.1 (active)

UCHL5, rucaparib or vehicle Rucaparib, cell line OCI-P5x (serous), technical replicate 3
- viability, normalised (%): 44.2 (active)

UCHL5, rucaparib or vehicle Vehicle, cell line OCI-C5x (clear cell), technical replicate 1
- viability, normalised (%): 73.2 (active)

UCHL5, rucaparib or vehicle Vehicle, cell line OCI-C5x (clear cell), technical replicate 2
- viability, normalised (%): 77.3 (active)

The list goes on.
KDM3B, rucaparib or vehicle Rucaparib, cell line OCI-C5x (clear cell), technical replicate 1 gave viability, normalised (%) = 66.3 (active). KDM3B, rucaparib or vehicle Rucaparib, cell line OCI-C5x (clear cell), technical replicate 2 showed viability, normalised (%) = 58.7 (active). With KDM3B, rucaparib or vehicle Rucaparib, cell line OCI-C5x (clear cell), technical replicate 3 the deposit lists viability, normalised (%) = 61.5 (active). KDM3B, rucaparib or vehicle Rucaparib, cell line OCI-P5x (serous), technical replicate 1 scored viability, normalised (%) = 51.5 (active). With KDM3B, rucaparib or vehicle Rucaparib, cell line OCI-P5x (serous), technical replicate 2, the values are viability, normalised (%) = 57 (active). For KDM3B, rucaparib or vehicle Rucaparib, cell line OCI-P5x (serous), technical replicate 3 the deposit lists viability, normalised (%) = 45.5 (active).

KDM3B, rucaparib or vehicle Vehicle, cell line OCI-C5x (clear cell), technical replicate 1 showed viability, normalised (%) = 57.1 (active). With KDM3B, rucaparib or vehicle Vehicle, cell line OCI-C5x (clear cell), technical replicate 2 the deposit lists viability, normalised (%) = 53.7 (active). With KDM3B, rucaparib or vehicle Vehicle, cell line OCI-C5x (clear cell), technical replicate 3, the values are viability, normalised (%) = 70.9 (active). With KDM3B, rucaparib or vehicle Vehicle, cell line OCI-P5x (serous), technical replicate 1, the entry reads viability, normalised (%) = 53.5 (active). For KDM3B, rucaparib or vehicle Vehicle, cell line OCI-P5x (serous), technical replicate 2, the entry reads viability, normalised (%) = 59.6 (active). With KDM3B, rucaparib or vehicle Vehicle, cell line OCI-P5x (serous), technical replicate 3 the deposit lists viability, normalised (%) = 61.4 (active).

For SP100, rucaparib or vehicle Rucaparib, cell line OCI-C5x (clear cell), technical replicate 1, the values are viability, normalised (%) = 80.1. SP100, rucaparib or vehicle Rucaparib, cell line OCI-C5x (clear cell), technical replicate 2 gave viability, normalised (%) = 62.1 (active). For SP100, rucaparib or vehicle Rucaparib, cell line OCI-C5x (clear cell), technical replicate 3, the entry reads viability, normalised (%) = 57.5 (active). For SP100, rucaparib or vehicle Rucaparib, cell line OCI-P5x (serous), technical replicate 1, the values are viability, normalised (%) = 61.9 (active). SP100, rucaparib or vehicle Rucaparib, cell line OCI-P5x (serous), technical replicate 2 scored viability, normalised (%) = 57.9 (active). SP100, rucaparib or vehicle Rucaparib, cell line OCI-P5x (serous), technical replicate 3 showed viability, normalised (%) = 61.1 (active).

For SP100, rucaparib or vehicle Vehicle, cell line OCI-C5x (clear cell), technical replicate 1, the entry reads viability, normalised (%) = 56 (active). SP100, rucaparib or vehicle Vehicle, cell line OCI-C5x (clear cell), technical replicate 2 scored viability, normalised (%) = 54.5 (active). For SP100, rucaparib or vehicle Vehicle, cell line OCI-C5x (clear cell), technical replicate 3, the entry reads viability, normalised (%) = 50.6 (active). With SP100, rucaparib or vehicle Vehicle, cell line OCI-P5x (serous), technical replicate 1, the entry reads viability, normalised (%) = 57.9 (active). For SP100, rucaparib or vehicle Vehicle, cell line OCI-P5x (serous), technical replicate 2, the entry reads viability, normalised (%) = 60.5 (active). SP100, rucaparib or vehicle Vehicle, cell line OCI-P5x (serous), technical replicate 3 scored viability, normalised (%) = 44.8 (active).
